Measured values from article PMC8699236.
These are yes or no findings as the source states them, for the method shown. Binding seen in cells or lysates may run through a third protein. Here binding means that the protein was enriched with, or labelled near, the bait; the list need not be complete. Sequences can lack the tags named with a protein.

By UniProt entry, the sequences of proteins in these tests, tags left out.
UniProt Q16186: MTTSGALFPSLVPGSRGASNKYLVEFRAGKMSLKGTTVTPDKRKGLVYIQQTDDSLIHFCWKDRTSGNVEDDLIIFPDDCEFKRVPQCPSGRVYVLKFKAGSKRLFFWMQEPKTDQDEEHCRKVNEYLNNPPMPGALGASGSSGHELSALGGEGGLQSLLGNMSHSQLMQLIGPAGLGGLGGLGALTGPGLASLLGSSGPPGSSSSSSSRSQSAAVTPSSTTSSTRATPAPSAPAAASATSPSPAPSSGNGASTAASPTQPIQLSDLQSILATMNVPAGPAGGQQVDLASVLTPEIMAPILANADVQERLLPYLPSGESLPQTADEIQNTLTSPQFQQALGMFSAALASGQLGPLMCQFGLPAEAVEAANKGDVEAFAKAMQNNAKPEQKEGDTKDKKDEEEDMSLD
UniProt P34932: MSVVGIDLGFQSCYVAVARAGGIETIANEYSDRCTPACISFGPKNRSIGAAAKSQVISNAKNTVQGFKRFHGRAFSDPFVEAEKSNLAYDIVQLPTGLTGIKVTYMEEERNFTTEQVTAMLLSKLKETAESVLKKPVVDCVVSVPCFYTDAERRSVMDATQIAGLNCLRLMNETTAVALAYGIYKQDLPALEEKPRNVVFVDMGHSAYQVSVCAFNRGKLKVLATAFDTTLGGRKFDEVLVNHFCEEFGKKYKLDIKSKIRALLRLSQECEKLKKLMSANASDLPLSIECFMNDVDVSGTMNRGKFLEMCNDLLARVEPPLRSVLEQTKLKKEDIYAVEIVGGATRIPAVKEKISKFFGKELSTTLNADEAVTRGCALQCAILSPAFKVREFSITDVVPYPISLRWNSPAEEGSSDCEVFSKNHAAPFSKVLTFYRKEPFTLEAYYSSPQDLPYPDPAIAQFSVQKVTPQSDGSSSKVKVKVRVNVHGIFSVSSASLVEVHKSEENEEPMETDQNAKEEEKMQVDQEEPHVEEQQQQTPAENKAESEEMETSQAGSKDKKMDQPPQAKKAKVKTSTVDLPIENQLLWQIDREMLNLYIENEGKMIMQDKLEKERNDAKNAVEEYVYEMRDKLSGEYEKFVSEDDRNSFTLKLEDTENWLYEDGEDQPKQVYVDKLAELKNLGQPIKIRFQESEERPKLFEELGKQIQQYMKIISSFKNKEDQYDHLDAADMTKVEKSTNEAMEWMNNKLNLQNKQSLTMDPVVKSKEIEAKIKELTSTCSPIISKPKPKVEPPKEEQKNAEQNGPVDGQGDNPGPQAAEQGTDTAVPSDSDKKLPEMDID
UniProt P49721: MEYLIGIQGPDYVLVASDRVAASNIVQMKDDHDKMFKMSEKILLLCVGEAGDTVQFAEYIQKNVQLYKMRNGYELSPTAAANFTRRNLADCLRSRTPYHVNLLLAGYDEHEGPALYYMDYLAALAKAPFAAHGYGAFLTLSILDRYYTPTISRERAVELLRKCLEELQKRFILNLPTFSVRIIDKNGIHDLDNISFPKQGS
UniProt P25786: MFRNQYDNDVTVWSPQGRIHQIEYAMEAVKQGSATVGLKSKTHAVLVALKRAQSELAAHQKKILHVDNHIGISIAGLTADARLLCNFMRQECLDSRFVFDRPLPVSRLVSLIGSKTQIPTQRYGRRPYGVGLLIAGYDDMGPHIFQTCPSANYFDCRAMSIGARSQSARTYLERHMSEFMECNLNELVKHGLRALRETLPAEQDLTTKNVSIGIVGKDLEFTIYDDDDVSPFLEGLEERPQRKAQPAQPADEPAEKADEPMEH
UniProt Q5T5P2: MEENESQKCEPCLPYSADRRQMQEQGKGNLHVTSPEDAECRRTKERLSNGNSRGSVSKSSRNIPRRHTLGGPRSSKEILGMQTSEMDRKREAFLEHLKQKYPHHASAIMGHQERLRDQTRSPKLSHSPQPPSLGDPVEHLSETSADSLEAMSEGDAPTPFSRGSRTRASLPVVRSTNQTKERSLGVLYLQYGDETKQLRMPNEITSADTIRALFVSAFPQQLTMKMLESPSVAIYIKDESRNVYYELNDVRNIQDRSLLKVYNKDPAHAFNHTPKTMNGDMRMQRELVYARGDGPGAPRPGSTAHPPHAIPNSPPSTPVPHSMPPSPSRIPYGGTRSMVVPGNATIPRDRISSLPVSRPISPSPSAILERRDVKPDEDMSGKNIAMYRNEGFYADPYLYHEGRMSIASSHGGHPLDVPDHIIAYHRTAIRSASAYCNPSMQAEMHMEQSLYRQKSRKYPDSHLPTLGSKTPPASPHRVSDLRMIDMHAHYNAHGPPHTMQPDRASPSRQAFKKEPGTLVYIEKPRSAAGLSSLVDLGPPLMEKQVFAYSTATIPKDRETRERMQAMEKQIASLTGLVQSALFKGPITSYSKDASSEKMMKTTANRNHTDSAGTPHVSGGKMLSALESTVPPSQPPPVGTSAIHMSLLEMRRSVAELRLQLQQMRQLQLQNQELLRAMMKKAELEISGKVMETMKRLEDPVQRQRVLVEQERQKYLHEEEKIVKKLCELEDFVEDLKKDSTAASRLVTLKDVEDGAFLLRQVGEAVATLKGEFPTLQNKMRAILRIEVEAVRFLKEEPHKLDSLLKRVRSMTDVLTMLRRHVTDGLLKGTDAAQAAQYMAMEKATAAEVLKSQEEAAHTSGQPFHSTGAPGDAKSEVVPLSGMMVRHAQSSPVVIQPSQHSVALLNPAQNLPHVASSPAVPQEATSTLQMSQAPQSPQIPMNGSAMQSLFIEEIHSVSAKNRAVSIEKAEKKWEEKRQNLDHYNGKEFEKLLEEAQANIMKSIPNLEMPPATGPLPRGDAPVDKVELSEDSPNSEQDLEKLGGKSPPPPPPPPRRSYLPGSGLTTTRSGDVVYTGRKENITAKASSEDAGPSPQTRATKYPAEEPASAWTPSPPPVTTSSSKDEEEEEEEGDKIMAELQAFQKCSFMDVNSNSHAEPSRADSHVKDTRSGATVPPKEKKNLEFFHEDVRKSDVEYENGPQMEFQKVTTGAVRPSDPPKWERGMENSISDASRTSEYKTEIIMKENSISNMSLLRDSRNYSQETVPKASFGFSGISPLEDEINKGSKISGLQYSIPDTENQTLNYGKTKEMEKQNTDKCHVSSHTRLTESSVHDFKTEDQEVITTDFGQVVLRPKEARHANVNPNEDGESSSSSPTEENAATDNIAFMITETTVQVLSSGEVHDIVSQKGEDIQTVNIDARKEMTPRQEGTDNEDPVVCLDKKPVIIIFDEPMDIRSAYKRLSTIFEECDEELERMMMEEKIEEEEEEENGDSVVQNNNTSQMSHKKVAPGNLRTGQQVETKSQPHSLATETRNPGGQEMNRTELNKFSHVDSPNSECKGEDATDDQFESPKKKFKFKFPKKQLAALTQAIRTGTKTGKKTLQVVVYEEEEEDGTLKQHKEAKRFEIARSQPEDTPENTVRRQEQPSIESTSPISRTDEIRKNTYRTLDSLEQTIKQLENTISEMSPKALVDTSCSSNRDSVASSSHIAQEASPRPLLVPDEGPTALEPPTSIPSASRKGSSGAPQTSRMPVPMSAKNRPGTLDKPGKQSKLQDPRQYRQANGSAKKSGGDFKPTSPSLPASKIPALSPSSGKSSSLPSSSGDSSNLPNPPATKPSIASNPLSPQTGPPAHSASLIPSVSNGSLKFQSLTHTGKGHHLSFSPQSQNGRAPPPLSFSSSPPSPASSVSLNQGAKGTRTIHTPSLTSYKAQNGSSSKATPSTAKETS
UniProt P62333: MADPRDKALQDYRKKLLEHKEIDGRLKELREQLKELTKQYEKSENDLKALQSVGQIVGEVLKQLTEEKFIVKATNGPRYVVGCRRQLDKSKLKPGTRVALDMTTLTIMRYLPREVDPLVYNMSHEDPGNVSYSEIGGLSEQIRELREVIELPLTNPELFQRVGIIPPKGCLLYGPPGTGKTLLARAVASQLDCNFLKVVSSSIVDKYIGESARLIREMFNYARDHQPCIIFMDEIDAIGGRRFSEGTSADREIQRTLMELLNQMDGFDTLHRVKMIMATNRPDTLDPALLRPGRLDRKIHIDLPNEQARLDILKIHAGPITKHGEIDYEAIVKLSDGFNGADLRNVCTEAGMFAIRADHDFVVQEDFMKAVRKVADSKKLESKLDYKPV
UniProt Q9BUT1: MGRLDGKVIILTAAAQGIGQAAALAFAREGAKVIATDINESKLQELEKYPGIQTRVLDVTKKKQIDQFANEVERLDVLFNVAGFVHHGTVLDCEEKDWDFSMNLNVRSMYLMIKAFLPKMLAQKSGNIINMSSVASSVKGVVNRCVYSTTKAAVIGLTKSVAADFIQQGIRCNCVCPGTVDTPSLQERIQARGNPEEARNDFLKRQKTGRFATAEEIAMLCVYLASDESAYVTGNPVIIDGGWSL
UniProt Q9UNE7: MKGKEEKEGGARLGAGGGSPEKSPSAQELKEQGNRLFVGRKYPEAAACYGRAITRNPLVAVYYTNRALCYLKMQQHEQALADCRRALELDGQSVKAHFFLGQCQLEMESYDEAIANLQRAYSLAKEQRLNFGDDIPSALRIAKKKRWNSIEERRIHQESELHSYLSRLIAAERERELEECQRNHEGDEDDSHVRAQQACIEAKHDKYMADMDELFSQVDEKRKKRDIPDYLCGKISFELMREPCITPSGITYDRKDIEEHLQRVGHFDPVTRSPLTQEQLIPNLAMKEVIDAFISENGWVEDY
UniProt P55036: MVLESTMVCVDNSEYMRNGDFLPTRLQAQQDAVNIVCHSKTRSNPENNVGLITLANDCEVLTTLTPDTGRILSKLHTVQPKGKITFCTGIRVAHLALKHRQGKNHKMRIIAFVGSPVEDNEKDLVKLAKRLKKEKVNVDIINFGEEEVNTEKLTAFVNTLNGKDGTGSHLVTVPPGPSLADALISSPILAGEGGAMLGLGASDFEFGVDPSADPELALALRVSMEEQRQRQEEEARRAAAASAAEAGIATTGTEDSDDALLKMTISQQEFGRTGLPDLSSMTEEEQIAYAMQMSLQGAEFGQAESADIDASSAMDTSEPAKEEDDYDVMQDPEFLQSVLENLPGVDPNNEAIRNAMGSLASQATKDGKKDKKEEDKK
UniProt P51784: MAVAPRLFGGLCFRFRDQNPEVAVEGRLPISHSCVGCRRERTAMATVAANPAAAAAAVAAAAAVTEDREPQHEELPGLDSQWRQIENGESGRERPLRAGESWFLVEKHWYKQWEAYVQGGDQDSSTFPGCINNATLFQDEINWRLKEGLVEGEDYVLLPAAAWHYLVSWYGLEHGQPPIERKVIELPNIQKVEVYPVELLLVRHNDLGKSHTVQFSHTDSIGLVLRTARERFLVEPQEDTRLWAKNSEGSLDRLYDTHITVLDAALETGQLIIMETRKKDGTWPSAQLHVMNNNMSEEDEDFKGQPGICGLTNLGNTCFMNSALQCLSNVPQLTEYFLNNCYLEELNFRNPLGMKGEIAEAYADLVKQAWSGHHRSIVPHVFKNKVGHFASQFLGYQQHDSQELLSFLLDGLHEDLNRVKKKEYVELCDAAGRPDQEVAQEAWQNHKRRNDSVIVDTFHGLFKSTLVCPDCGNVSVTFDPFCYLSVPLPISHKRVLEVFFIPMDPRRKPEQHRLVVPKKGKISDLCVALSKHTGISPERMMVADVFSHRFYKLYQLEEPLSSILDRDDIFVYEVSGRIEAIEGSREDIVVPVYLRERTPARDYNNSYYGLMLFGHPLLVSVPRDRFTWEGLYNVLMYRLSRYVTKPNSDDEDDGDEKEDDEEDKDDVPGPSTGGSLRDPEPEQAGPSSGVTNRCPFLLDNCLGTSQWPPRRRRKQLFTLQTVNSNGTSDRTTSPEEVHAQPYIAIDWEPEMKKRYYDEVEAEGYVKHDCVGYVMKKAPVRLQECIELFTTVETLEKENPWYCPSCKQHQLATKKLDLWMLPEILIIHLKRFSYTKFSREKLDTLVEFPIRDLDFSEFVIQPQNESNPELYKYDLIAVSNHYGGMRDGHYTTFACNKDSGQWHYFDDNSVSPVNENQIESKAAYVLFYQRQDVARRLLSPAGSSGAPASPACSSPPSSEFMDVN
UniProt O00505: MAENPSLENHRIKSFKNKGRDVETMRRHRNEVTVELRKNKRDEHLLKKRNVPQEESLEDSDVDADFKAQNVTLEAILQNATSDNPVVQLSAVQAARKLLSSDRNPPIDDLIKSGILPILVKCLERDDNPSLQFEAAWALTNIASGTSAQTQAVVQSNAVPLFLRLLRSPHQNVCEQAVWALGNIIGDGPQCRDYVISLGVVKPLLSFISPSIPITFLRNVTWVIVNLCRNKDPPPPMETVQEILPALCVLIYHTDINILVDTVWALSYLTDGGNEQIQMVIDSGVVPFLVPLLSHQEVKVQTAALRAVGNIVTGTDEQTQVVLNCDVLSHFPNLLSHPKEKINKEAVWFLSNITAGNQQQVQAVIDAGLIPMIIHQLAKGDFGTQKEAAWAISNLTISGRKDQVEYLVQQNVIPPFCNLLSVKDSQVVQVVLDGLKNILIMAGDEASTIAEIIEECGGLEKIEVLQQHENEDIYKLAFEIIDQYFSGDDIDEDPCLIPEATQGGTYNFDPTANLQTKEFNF

B1: DnaJ Heat Shock Protein Family Member C10 (protein, UniProt Q8IXB1 33-793)
chain: DQDFYSLLGVSKTASSREIRQAFKKLALKLHPDKNPNNPNAHGDFLKINRAYEVLKDEDLRKKYDKYGEKGLEDNQGGQYESWNYYRYDFGIYDDDPEIITLERREFDAAVNSGELWFVNFYSPGCSHCHDLAPTWRDFAKEVDGLLRIGAVNCGDDRMLCRMKGVNSYPSLFIFRSGMAPVKYHGDRSKESLVSFAMQHVRSTVTELWTGNFVNSIQTAFAAGIGWLITFCSKGGDCLTSQTRLRLSGMLDGLVNVGWMDCATQDNLCKSLDITTSTTAYFPPGATLNNKEKNSILFLNSLDAKEIYLEVIHNLPDFELLSANTLEDRLAHHRWLLFFHFGKNENSNDPELKKLKTLLKNDHIQVGRFDCSSAPDICSNLYVFQPSLAVFKGQGTKEYEIHHGKKILYDILAFAKESVNSHVTTLGPQNFPANDKEPWLVDFFAPWCPPCRALLPELRRASNLLYGQLKFGTLDCTVHEGLCNMYNIQAYPTTVVFNQSNIHEYEGHHSAEQILEFIEDLMNPSVVSLTPTTFNELVTQRKHNEVWMVDFYSPWCHPCQVLMPEWKRMARTLTGLINVGSIDCQQYHSFCAQENVQRYPEIRFFPPKSNKAYHYHSYNGWNRDAYSLRIWGLGFLPQVSTDLTPQTFSEKVLQGKNHWVIDFYAPWCGPCQNFAPEFELLARMIKGKVKAGKVDCQAYAQTCQKAGIRAYPTVKFYFYERAKRNFQEEQINTRDAKAIAALISEKLETLRNQGKRNKDEL
B2: IRON-Sulfur Cluster Assembly 1 (protein, UniProt Q9BUE6 13-129)
chain: VSKRKLQPTRAALTLTPSAVNKIKQLLKDKPEHVGVKVGVRTRGCNGLSYTLEYTKTKGDSDEEVIQDGVRVFIEKKAQLTLLGTEMDYVEDKLSSEFVFNNPNIKGTCGCGESFNI
B3: Ferrochelatase (protein, UniProt P22830 55-423)
chain: GAKPQVQPQKRKPKTGILMLNMGGPETLGDVHDFLLRLFLDRDLMTLPIQNKLAPFIAKRRTPKIQEQYRRIGGGSPIKIWTSKQGEGMVKLLDELSPNTAPHKYYIGFRYVHPLTEEAIEEMERDGLERAIAFTQYPQYSCSTTGSSLNAIYRYYNQVGRKPTMKWSTIDRWPTHHLLIQCFADHILKELDHFPLEKRSEVVILFSAHSLPMSVVNRGDPYPQEVSATVQKVMERLEYCNPYRLVWQSKVGPMPWLGPQTDESIKGLCERGRKNILLVPIAFTSDHIETLYELDIEYSQVLAKECGVENIRRAESLNGNPLFSKALADLVHSHIQSNELCSKQLTLSCPLCVNPVCRETKSFFTSQQL
B4: WD Repeat Domain 37 (protein, UniProt Q9Y2I8 1-494)
chain: MPTESASCSTARQTKQKRKSHSLSIRRTNSSEQERTGLPRDMLEGQDSKLPSSVRSTLLELFGQIEREFENLYIENLELRREIDTLNERLAAEGQAIDGAELSKGQLKTKASHSTSQLSQKLKTTYKASTSKIVSSFKTTTSRAACQLVKEYIGHRDGIWDVSVAKTQPVVLGTASADHTALLWSIETGKCLVKYAGHVGSVNSIKFHPSEQLALTASGDQTAHIWRYAVQLPTPQPVADTSISGEDEVECSDKDEPDLDGDVSSDCPTIRVPLTSLKSHQGVVIASDWLVGGKQAVTASWDRTANLYDVETSELVHSLTGHDQELTHCCTHPTQRLVVTSSRDTTFRLWDFRDPSIHSVNVFQGHTDTVTSAVFTVGDNVVSGSDDRTVKVWDLKNMRSPIATIRTDSAINRINVCVGQKIIALPHDNRQVRLFDMSGVRLARLPRSSRQGHRRMVCCSAWSEDHPVCNLFTCGFDRQAIGWNINIPALLQEK
B5: BTB/POZ Domain-Containing Protein KCTD21 (protein, UniProt Q4G0X4 1-260)
chain: MSDPITLNVGGKLYTTSLATLTSFPDSMLGAMFSGKMPTKRDSQGNCFIDRDGKVFRYILNFLRTSHLDLPEDFQEMGLLRREADFYQVQPLIEALQEKEVELSKAEKNAMLNITLNQRVQTVHFTVREAPQIYSLSSSSMEVFNANIFSTSCLFLKLLGSKLFYCSNGNLSSITSHLQDPNHLTLDWVANVEGLPEEEYTKQNLKRLWVVPANKQINSFQVFVEEVLKIALSDGFCIDSSHPHALDFMNNKIIRLIRYR
B6: CDC42 Effector Protein 1 (protein, UniProt Q00587 1-391)
chain: MPGPQGGRGAATMSLGKLSPVGWVSSSQGKRRLTADMISHPLGDFRHTMHVGRGGDVFGDTSFLSNHGGSSGSTHRSPRSFLAKKLQLVRRVGAPPRRMASPPAPSPAPPAISPIIKNAISLPQLNQAAYDSLVVGKLSFDSSPTSSTDGHSSYGLDSGFCTISRLPRSEKPHDRDRDGSFPSEPGLRRSDSLLSFRLDLDLGPSLLSELLGVMSLPEAPAAETPAPAANPPAPTANPTGPAANPPATTANPPAPAANPSAPAATPTGPAANPPAPAASSTPHGHCPNGVTAGLGPVAEVKSSPVGGGPRGPAGPALGRHWGAGWDGGHHYPEMDARQERVEVLPQARASWESLDEEWRAPQAGSRTPVPSTVQANTFEFADAEEDDEVKV
B7: Protein Phosphatase Mg2+ Dependent 1G (protein, UniProt O15355 1-546)
chain: MGAYLSQPNTVKCSGDGVGAPRLPLPYGFSAMQGWRVSMEDAHNCIPELDSETAMFSVYDGHGGEEVALYCAKYLPDIIKDQKAYKEGKLQKALEDAFLAIDAKLTTEEVIKELAQIAGRPTEDEDEKEKVADEDDVDNEEAALLHEEATMTIEELLTRYGQNCHKGPPHSKSGGGTGEEPGSQGLNGEAGPEDSTRETPSQENGPTAKAYTGFSSNSERGTEAGQVGEPGIPTGEAGPSCSSASDKLPRVAKSKFFEDSEDESDEAEEEEEDSEECSEEEDGYSSEEAENEEDEDDTEEAEEDDEEEEEEMMVPGMEGKEEPGSDSGTTAVVALIRGKQLIVANAGDSRCVVSEAGKALDMSYDHKPEDEVELARIKNAGGKVTMDGRVNGGLNLSRAIGDHFYKRNKNLPPEEQMISALPDIKVLTLTDDHEFMVIACDGIWNVMSSQEVVDFIQSKISQRDENGELRLLSSIVEELLDQCLAPDTSGDGTGCDNMTCIIICFKPRNTAELQPESGKRKLEEVLSTEGAEENGNSDKKKKAKRD

Tests used:
[1] = molecular target: T1, TRIB1 GFP-fusion protein (human) (UniProt Q96RU8); assay: affinity purification with mass spectrometry; GFP-fusion bait from lysate of transfected HEK293T cells on GFP-Trap beads, 2 h at 4 °C; lysis buffer 50 mM Tris pH 8.0, 1 mM EDTA, 0.1% NP40, 250 mM NaCl, 10% glycerol; on-bead digestion, LC-MS, label-free, against GFP control (or mutant against mutant or wild type)
T1 sequence: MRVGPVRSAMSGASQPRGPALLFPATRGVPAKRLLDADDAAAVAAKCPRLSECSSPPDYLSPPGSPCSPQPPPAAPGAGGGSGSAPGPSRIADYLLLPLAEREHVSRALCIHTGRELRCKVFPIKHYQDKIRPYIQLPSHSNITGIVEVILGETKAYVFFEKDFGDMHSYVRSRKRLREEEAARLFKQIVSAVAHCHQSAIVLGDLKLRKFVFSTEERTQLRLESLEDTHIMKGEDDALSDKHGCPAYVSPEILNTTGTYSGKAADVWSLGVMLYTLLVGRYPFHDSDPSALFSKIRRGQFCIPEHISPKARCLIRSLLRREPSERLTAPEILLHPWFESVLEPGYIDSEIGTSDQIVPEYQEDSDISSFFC

[2] = molecular target: T2, TRIB2 GFP-fusion protein (human) (UniProt Q92519); assay: as above
T2 sequence: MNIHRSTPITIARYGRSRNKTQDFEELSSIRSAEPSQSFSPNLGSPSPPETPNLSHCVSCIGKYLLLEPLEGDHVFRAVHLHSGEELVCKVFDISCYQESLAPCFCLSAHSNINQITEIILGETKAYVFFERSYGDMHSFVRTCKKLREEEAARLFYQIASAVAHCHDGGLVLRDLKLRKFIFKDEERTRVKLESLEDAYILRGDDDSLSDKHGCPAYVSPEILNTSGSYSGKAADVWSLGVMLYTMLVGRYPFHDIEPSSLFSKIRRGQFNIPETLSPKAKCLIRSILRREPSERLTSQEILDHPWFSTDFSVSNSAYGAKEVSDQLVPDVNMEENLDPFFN

Row | Molecule | binding [1] | binding [2]
1 | 26S Proteosome Ubiquitin Receptor (from UniProt Q16186 1-407) | binds | –
2 | Heat Shock Protein A Member 4 (from UniProt P34932 1-840) | binds | –
3 | Proteosome 20S subunit Beta 2 (from UniProt P49721 1-201) | binds | –
4 | Zinc Finger with KRAB and SCAN Domains 1 (from UniProt P17029 1-563) | – | binds
5 | Karyopherin Subunit Alpha 4 (from UniProt O00629 1-521) | binds | –
6 | Proteosome 20S subunit Alpha 1 (from UniProt P25786 1-263) | binds | –
7 | Apoptosis inducing Factor Mitochondrial Associated 1 (from UniProt O95831) | – | binds
8 | Sickle tail Protein Homolog (from UniProt Q5T5P2 1-1943) | – | binds
9 | Proteosome 26S subunit ATPase 6 (from UniProt P62333 1-389) | binds | –
10 | Heat Shock Protein Family A Member 4 Like (from UniProt O95757 1-839) | binds | –
11 | 3-Hydroxybutyrate Dehtdrogenase 2 (from UniProt Q9BUT1 1-245) | – | binds
12 | Proteosome 20S subunit Alpha 5 (from UniProt P28066 1-241) | binds | –
13 | Regulatory Associated Protein of MTOR Complex 1 (from UniProt Q8N122 1-1335) | – | binds
14 | STIP1 Homology and U-Box Containing Protein 1 (from UniProt Q9UNE7 1-303) | binds | –
15 | Proteasome 26S Subunit Ubiquitin receptor 4 (from UniProt P55036 1-377) | binds | –
16 | Ubiquitin Specific Peptidase 11 (from UniProt P51784 1-963) | – | binds
17 | Proteosome 20S subunit Alpha 2 (from UniProt P25787 1-234) | binds | –
18 | protein kinase AKT/PKB (human (endogenous in HEK293T and MCF7)) | binds | –
19 | Karyopherin Subunit Alpha 3 (from UniProt O00505 1-521) | binds | –
20 | Proteosome 26S subunit ATPase 2 (from UniProt P35998 1-433) | binds | –
21 | Heat Shock Protein Family H Member 1 (from UniProt Q92598 1-858) | binds | –
22 | Proteosome 20S subunit Alpha 7 (from UniProt O14818 1-248) | binds | –
23 | B1 | binds | –
24 | B2 | – | binds
25 | B3 | – | binds
26 | B4 | – | binds
27 | B5 | – | binds
28 | B6 | – | binds
29 | B7 | binds | –
